# No constants are given. Whether binding was seen depends on the method and setting. Binding seen in cells or lysates may run through a third protein. These calls come from enrichment with a bait or labelling near it, and not all partners need be listed.
# By UniProt entry, the sequences of proteins in these tests, tags left out.
# UniProt P43006: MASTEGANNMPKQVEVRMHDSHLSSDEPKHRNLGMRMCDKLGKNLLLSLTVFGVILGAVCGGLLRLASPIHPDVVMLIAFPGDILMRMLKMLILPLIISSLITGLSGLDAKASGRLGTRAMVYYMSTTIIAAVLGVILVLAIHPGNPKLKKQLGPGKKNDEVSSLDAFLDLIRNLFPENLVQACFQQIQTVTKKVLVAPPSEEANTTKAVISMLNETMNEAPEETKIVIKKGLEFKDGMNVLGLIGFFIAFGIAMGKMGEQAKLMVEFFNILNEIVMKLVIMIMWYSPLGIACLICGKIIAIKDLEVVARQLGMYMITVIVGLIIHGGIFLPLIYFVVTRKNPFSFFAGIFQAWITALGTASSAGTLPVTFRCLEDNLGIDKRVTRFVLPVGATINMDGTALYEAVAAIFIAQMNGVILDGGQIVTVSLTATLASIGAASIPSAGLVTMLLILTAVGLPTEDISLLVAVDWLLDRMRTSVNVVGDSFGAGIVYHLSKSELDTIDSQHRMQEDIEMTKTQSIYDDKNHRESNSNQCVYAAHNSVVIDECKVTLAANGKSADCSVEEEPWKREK
# Target: GLT-1 (endogenous, mouse brain homogenate) (mouse (endogenous in mouse brain)) (UniProt P43006)
# Assay: affinity purification with mass spectrometry; immunocomplexes from mouse brain homogenate precipitated by the GLT-1 antibody; a band of the Coomassie-stained gel used for mass spectrum analysis
substance,measurement,value
"PKCα (endogenous, mouse brain homogenate) (from UniProt P20444 1-672) (enzyme)",binding,binds

# — PMC8940927
